Experimental data: patent US9950067B2, “Trans carotenoids, their synthesis, formulation and uses” (Diffusion Pharmaceuticals, LLC, priority 2005, dated 2018)

Test: Endotoxin removal of gamma-cyclodextrin by filtration
Details: 8% gamma cyclodextrin solution

## OC[C@H]1O[C@@H]2O[C@H]3[C@H](O)[C@@H](O)[C@@H](O[C@H]4[C@H](O)[C@@H](O)[C@@H](O[C@H]5[C@H](O)[C@@H](O)[C@@H](O[C@H]6[C@H](O)[C@@H](O)[C@@H](O[C@H]7[C@H](O)[C@@H](O)[C@@H](O[C@H]8[C@H](O)[C@@H](O)[C@@H](O[C@H]9[C@H](O)[C@@H](O)[C@@H](O[C@H]1[C@H](O)[C@H]2O)O[C@@H]9CO)O[C@@H]8CO)O[C@@H]7CO)O[C@@H]6CO)O[C@@H]5CO)O[C@@H]4CO)O[C@@H]3CO [gamma cyclodextrin]
After 1 filtration
  Endotoxin levels: 0.0246 EU/mg of cyclodextrin
After 2 filtrations
  Endotoxin levels: 0.0125 EU/mg of cyclodextrin
After 3 filtrations
  Endotoxin levels: 0.0125 EU/mg of cyclodextrin
prefiltered
  Endotoxin levels: 0.226 EU/mg of cyclodextrin
